In patent US20240190943A1 (HANGZHOU EXEGENESIS BIO, published 2024):
Results are given in words; binding and its absence hold for the method and conditions named. Some results given as binding are weak or reduced against the parent protein; the word gives no strength. Where a sequence is shown, tags or fusion partners need not be part of it.

The chains behind the UniProt entries cited, without tags or fusion partners. Where a name states a change or a piece, a line headed by the entry shows the natural chain unless it says otherwise. A line that says so, or that is headed by a name, gives the form on record, which may keep a tag or linker.
VEGF-A (P15692-4, form named): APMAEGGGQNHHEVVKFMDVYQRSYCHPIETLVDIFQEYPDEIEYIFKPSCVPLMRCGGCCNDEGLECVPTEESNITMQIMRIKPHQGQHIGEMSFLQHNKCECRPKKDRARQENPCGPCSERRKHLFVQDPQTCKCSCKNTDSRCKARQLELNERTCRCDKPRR

Experiments:
VEGF-A [1] = molecular target: T1, VEGF-A (UniProt P15692-4 27-191, limits assumed); assay: rVEGF ELISA, shown relative to Exg102-04; left bar of each group
T1 construct: also called rVEGF; vascular endothelial growth factor

VEGF-A [2] = molecular target: T1, VEGF-A; assay: VEGF-A binding ELISA (OD450), titration in pM of the product of plasmid-transfected cells
VEGF-A [3] = molecular target: T1, VEGF-A; assay: rVEGF ELISA with equal conditioned medium from transient transfection
VEGF-A [4] = molecular target: T1, VEGF-A; assay: ELISA, protein affinity purified from lysate of transfected HEK293T cells
VEGF-A [5] = molecular target: T1, VEGF-A; assay: ELISA on VEGF-A, protein affinity-purified from transfected HEK293T cells; axis 'VEGF-A (19nM) Affinity OD450'

Row | binding (VEGF-A [1]) | binding (VEGF-A [2]) | binding (VEGF-A [3]) | binding (VEGF-A [4]) | binding (VEGF-A [5]) | Binder
1 | binds |  |  |  |  | Exg102-13 (other, Carries only the N-terminal 21 amino acids of the Fc (Fc-Hinger) and no full Fc; also called Exemplary polypeptide 4) fusion polypeptide (Flt1 signal - VEGFR1 D2 - VEGFR2 D3 - Fc-Hinge - Ang BD): SDTGRPFVEMYSEIPEIIHMTEGRELVIPCRVTSPNITVTLKKFPLDTLIPDGKRIIWDSRKGFIISNATYKEIGLLTCEATVNGHLYKTNYLTHRQTNTIIDVVLSPSHGIELSVGEKLVLNCTARTELNVGIDFNWEYPSSKHQHKKLVNRDLKTQSGSEMKKFLSTLTIDGVTRSDQGLYTCAASSGLMTKKNSTFVRVHEKDKTHTCPPCPAPELLGGPSVGGGGGSGGGGGAQQEECEWDPWTCEHMGSGSATGGSGSTASSGSGSATHQEECEWDPWTCEHMLE
2 | binds | binds | binds | binds | binds | control polypeptide without an Ang BD (Fc fusion, Signal peptide left out; also called EXG102-02; EXG102-03-1; not shown: Fc fragment of human IgG) SDTGRPFVEMYSEIPEIIHMTEGRELVIPCRVTSPNITVTLKKFPLDTLIPDGKRIIWDSRKGFIISNATYKEIGLLTCEATVNGHLYKTNYLTHRQTNTIIDVVLSPSHGIELSVGEKLVLNCTARTELNVGIDFNWEYPSSKHQHKKLVNRDLKTQSGSEMKKFLSTLTIDGVTRSDQGLYTCAASSGLMTKKNSTFVRVHE
